According to the supplement of paper PMC6411743:
± gives the standard deviation of the averaged measurements. This is one part of the list.

By UniProt entry, the sequences of proteins in these tests, tags left out. Where a name states a change or a piece, a line headed by the entry shows the natural chain unless it says otherwise.
UniProt P27144: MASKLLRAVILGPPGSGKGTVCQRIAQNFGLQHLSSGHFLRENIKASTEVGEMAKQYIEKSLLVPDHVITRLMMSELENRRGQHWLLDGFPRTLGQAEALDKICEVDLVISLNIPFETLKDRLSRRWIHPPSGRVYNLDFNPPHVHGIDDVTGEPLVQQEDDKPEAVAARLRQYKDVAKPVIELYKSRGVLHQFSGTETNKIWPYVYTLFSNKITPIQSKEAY
UniProt P50238: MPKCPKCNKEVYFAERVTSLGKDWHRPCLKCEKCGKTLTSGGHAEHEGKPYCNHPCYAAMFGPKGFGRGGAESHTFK
UniProt P31749: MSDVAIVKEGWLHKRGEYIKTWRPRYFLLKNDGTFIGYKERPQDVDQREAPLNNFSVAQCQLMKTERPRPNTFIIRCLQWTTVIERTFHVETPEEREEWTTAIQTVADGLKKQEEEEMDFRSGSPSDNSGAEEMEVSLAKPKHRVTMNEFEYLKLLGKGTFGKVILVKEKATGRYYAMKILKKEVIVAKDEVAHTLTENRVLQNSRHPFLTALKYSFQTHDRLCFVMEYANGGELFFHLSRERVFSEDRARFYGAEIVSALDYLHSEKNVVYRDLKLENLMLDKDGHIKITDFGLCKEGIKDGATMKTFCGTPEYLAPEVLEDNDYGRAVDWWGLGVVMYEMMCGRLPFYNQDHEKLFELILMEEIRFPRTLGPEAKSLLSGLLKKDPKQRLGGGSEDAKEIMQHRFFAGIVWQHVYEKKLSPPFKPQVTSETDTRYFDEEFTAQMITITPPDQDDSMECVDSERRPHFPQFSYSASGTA
UniProt P49748: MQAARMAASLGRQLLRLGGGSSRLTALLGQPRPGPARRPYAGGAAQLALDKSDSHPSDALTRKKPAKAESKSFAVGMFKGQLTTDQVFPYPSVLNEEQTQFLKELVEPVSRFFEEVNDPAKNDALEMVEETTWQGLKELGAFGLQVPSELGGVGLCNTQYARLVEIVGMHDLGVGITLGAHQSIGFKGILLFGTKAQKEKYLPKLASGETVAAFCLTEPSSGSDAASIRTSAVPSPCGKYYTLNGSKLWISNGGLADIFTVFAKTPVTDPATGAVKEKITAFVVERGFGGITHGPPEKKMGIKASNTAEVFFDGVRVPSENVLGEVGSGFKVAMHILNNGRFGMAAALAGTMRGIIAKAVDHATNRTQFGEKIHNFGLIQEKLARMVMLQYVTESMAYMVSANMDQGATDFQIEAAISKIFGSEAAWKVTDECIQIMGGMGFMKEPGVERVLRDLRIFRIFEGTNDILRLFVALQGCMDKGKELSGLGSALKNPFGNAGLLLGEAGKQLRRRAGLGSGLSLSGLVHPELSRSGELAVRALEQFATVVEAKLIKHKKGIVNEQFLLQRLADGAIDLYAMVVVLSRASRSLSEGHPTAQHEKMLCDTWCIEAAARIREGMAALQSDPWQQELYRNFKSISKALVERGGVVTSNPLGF
UniProt P41208: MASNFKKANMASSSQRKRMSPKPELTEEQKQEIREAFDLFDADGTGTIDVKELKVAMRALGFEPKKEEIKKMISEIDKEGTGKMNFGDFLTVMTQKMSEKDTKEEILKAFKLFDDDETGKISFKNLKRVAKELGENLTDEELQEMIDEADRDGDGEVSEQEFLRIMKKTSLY
UniProt P35659: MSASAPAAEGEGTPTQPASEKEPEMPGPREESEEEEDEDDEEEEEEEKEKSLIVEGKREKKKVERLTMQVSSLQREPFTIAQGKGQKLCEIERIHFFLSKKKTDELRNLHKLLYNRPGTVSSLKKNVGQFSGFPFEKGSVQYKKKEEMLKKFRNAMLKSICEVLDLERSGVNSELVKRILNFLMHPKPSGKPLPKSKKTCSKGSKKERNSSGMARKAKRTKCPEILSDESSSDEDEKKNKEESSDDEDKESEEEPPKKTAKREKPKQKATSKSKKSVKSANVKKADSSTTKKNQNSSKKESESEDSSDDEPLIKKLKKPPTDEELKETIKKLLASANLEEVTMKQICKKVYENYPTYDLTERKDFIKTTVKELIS
UniProt P43307: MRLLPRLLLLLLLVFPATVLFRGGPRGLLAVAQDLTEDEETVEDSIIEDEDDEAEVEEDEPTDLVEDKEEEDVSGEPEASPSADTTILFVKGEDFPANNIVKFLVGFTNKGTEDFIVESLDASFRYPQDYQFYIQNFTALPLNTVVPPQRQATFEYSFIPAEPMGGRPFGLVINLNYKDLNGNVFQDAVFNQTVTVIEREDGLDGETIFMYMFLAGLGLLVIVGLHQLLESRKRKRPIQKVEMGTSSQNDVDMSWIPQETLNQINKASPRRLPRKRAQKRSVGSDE
UniProt P42025, whole entry: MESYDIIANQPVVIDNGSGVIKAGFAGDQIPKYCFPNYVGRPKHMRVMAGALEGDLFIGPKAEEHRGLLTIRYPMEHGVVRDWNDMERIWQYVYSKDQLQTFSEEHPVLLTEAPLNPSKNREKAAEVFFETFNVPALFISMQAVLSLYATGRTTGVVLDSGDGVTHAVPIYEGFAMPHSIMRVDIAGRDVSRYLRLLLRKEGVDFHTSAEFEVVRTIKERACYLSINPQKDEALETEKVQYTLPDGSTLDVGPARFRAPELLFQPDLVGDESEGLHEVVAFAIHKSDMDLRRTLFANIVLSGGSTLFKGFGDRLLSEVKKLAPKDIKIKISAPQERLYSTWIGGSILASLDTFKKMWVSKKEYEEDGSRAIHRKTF
UniProt P47897: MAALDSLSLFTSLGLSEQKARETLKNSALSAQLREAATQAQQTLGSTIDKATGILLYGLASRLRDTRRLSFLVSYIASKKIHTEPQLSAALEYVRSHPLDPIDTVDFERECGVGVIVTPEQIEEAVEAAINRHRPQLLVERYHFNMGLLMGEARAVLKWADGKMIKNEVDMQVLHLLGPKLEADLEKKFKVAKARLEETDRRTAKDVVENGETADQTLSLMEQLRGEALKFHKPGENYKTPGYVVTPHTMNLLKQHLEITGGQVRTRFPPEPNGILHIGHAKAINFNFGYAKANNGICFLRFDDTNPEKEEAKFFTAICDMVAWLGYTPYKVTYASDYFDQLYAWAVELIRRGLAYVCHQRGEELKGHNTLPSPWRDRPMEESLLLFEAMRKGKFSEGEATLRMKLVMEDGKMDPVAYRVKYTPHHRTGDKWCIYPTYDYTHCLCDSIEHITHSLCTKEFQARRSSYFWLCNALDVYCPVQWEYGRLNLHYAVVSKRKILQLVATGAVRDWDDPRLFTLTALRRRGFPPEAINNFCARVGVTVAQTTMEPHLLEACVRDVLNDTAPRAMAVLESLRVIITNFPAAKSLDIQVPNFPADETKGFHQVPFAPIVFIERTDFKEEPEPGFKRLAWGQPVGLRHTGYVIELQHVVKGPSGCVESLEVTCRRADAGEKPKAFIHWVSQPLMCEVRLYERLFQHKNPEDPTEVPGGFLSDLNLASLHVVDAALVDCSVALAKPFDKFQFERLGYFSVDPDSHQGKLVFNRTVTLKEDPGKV
UniProt P27694, whole entry: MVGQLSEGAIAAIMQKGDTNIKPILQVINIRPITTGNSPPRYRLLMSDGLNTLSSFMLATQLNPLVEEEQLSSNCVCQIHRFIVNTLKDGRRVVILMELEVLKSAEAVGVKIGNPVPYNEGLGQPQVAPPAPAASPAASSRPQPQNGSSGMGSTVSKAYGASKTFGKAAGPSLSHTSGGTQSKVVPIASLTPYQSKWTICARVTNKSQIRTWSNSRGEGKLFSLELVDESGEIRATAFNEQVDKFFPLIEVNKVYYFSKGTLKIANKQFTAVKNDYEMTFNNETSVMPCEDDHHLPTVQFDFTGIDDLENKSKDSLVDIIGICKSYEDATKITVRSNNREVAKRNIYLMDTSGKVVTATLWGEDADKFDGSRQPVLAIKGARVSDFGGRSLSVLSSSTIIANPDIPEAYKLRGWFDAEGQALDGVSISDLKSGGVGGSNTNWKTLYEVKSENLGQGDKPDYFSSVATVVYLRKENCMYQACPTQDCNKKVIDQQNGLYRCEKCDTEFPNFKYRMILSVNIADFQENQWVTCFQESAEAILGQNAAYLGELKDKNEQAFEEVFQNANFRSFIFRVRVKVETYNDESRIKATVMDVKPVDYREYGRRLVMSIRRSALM
UniProt P43007: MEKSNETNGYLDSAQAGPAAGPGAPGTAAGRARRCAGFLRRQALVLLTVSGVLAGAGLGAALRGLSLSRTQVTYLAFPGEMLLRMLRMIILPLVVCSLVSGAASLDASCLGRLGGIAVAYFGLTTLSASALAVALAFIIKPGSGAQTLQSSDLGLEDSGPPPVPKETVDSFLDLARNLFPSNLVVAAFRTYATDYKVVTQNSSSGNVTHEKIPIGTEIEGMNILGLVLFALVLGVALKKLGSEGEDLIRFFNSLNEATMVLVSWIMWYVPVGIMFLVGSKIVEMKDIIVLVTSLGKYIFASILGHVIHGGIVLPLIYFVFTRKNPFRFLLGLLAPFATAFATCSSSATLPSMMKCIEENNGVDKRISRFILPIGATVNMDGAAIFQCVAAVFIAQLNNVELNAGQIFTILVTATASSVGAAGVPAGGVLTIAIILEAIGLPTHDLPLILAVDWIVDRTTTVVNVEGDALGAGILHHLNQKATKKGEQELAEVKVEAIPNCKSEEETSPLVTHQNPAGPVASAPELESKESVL
UniProt P35610: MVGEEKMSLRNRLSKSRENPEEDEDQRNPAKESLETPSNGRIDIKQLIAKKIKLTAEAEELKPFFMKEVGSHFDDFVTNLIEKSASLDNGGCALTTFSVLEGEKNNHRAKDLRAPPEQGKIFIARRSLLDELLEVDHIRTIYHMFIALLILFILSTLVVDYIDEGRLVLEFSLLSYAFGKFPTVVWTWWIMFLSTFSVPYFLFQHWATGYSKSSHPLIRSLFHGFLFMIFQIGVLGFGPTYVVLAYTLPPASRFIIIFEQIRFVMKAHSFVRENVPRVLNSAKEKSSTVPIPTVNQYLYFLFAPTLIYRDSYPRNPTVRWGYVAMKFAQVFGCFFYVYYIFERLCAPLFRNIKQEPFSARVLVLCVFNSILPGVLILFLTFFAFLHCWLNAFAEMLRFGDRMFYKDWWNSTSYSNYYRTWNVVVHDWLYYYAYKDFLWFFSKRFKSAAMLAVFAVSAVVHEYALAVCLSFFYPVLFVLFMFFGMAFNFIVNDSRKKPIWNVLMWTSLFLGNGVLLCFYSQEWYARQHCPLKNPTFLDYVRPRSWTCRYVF
UniProt P36404: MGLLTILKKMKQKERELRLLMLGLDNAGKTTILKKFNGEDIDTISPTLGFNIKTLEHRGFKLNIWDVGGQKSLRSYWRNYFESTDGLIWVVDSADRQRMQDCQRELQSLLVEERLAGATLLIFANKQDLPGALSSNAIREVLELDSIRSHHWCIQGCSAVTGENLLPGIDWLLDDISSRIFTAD
UniProt P49757: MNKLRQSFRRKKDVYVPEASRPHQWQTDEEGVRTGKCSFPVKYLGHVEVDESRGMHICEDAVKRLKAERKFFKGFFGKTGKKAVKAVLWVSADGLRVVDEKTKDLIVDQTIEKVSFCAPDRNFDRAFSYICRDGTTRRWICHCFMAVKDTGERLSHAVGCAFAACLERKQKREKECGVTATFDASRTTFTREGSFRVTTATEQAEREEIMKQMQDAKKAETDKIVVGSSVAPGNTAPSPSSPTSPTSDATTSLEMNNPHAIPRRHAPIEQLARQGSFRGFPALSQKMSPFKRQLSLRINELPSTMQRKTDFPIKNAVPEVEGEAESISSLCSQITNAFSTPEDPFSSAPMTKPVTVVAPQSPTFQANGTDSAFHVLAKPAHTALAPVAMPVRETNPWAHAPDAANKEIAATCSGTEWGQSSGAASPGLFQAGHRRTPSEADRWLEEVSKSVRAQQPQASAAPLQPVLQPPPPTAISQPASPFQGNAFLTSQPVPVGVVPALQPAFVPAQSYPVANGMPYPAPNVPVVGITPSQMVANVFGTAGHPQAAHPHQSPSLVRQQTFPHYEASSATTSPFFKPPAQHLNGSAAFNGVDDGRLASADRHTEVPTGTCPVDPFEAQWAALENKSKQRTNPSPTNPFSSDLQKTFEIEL
UniProt P30043: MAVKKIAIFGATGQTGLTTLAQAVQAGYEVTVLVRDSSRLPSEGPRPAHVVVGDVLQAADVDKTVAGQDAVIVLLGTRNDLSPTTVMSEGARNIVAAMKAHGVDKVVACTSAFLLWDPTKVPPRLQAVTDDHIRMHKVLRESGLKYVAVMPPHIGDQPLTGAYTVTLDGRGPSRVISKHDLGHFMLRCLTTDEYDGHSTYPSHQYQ
UniProt P36543, whole entry: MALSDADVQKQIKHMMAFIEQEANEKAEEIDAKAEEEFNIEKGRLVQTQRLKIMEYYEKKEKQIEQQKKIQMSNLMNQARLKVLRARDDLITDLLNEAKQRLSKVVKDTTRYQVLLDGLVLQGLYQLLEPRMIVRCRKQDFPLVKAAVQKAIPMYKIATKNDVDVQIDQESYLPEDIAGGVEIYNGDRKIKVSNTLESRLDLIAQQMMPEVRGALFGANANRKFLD

Compound: Nc1nc2c(ncn2[C@@H]2O[C@H](COP(=O)(O)OP(=O)(O)OP(=O)(O)O)[C@@H](O)[C@H]2O)c(=O)[nH]1 [guanosine triphosphate]
Experiment: NP40-soluble protein abundance relative to vehicle (solubility fold change) (ratio); higher = more soluble protein in presence of GTP
Summary of the method: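 Data come from three independent experiments in which Dounce-homogenised Jurkat crude lysate was treated at eight concentrations from 0.1 to 10 mM. Treatment ran 10 min at room temperature and then 3 min at 37 °C, after which 0.8% NP40 and benzonase were added for 60 min at 4 °C before ultracentrifugation. The supernatant underwent TMT labelling and LC-MS/MS, and vsn-normalised intensities were expressed as fold change against the detergent-processed vehicle in each replicate.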

Target	NP40-soluble protein abundance (concentration: 0.1mM)	NP40-soluble protein abundance (concentration: 0.5mM)	NP40-soluble protein abundance (concentration: 1mM)	NP40-soluble protein abundance (concentration: 2mM)	NP40-soluble protein abundance (concentration: 4mM)	NP40-soluble protein abundance (concentration: 6mM)	NP40-soluble protein abundance (concentration: 8mM)	NP40-soluble protein abundance (concentration: 10mM)
AK4 (UniProt P27144)	0.983 ± 0.072	0.887 ± 0.088	1.03 ± 0.042	1 ± 0.075	1.03 ± 0.11	0.987 ± 0.11	0.975 ± 0.16	0.983 ± 0.11
CRIP1 (UniProt P50238)	0.992 ± 0.077	0.952 ± 0.04	1.08 ± 0.065	1.02 ± 0.043	1.01 ± 0.016	1.04 ± 0.029	1.06 ± 0.033	1.07 ± 0.033
AKT1 (UniProt P31749)	1.03 ± 0.025	0.998 ± 0.037	0.829 ± 0.022	0.847 ± 0.041	0.855 ± 0.044	0.822 ± 0.019	0.7972 ± 0.0021	0.767 ± 0.011
UniProt P49748 and related entries	1.03 ± 0.025	1.03 ± 0.031	0.93 ± 0.018	0.931 ± 0.066	0.932 ± 0.036	0.899 ± 0.054	0.89 ± 0.019	0.861 ± 0.057
CETN2 (UniProt P41208)	0.769 ± 0.051	0.778 ± 0.013	0.963 ± 0.091	0.985 ± 0.045	0.959 ± 0.09	1.02 ± 0.044	0.929 ± 0.11	1.1 ± 0.1
CCT5 (UniProt P48643)	1.02 ± 0.03	1.08 ± 0.1	1.1 ± 0.14	1.07 ± 0.16	1.08 ± 0.18	1.07 ± 0.2	1.07 ± 0.2	0.984 ± 0.19
RPL34 (UniProt P49207)	0.87 ± 0.083	0.87 ± 0.081	1.01 ± 0.17	0.923 ± 0.17	0.851 ± 0.22	0.822 ± 0.21	0.581 ± 0.16	0.812 ± 0.23
CAPG (UniProt P40121)	0.925 ± 0.079	0.947 ± 0.089	0.929 ± 0.087	0.876 ± 0.1	0.843 ± 0.074	0.894 ± 0.1	0.893 ± 0.075	0.859 ± 0.094
UniProt P35611 and related entries	0.996 ± 0.029	1.018 ± 0.0043	1.01 ± 0.051	0.998 ± 0.035	0.985 ± 0.029	1 ± 0.024	1 ± 0.032	1.01 ± 0.017
DEK (UniProt P35659)	0.895 ± 0.054	0.909 ± 0.073	1.02 ± 0.08	1 ± 0.12	1.07 ± 0.11	1.09 ± 0.11	1.17 ± 0.079	1.22 ± 0.14
RBM25 (UniProt P49756)	0.926 ± 0.032	1.02 ± 0.048	1.03 ± 0.074	1.03 ± 0.059	1.07 ± 0.1	1.16 ± 0.13	1.28 ± 0.19	1.38 ± 0.25
UniProt P48634 and related entries	1.07 ± 0.034	1.06 ± 0.0091	1.19 ± 0.1	1.27 ± 0.03	1.42 ± 0.062	1.52 ± 0.096	1.7 ± 0.19	1.84 ± 0.28
SSR1 (UniProt P43307)	0.815 ± 0.13	0.785 ± 0.11	0.854 ± 0.13	0.879 ± 0.11	0.91 ± 0.11	0.855 ± 0.11	0.836 ± 0.14	0.921 ± 0.13
SDHA (UniProt P31040)	0.985 ± 0.019	1.03 ± 0.032	0.947 ± 0.018	0.933 ± 0.028	0.91 ± 0.027	0.928 ± 0.025	0.905 ± 0.022	0.886 ± 0.041
EIF2B2 (UniProt P49770)	1.05 ± 0.03	0.981 ± 0.029	0.966 ± 0.051	1 ± 0.078	1 ± 0.075	0.981 ± 0.076	0.944 ± 0.017	0.932 ± 0.046
ACTR1B (UniProt P42025)	1.05 ± 0.038	1.09 ± 0.064	1.06 ± 0.073	1.14 ± 0.15	1.14 ± 0.16	1.13 ± 0.13	1.1 ± 0.099	1.1 ± 0.14
PSMB6 (UniProt P28072)	0.98 ± 0.066	1.04 ± 0.088	1 ± 0.11	1.07 ± 0.14	1.03 ± 0.14	1.08 ± 0.18	1.05 ± 0.14	1.05 ± 0.15
QARS (UniProt P47897)	1.08 ± 0.075	1.14 ± 0.14	1.08 ± 0.15	1.17 ± 0.24	1.22 ± 0.26	1.18 ± 0.28	1.17 ± 0.22	1.14 ± 0.25
MCM7 (UniProt P33993)	1.01 ± 0.018	1.06 ± 0.061	0.988 ± 0.071	1.01 ± 0.11	1 ± 0.13	1.02 ± 0.13	1 ± 0.081	0.962 ± 0.079
RPA1 (UniProt P27694)	0.994 ± 0.025	1.02 ± 0.04	0.938 ± 0.025	0.946 ± 0.036	0.927 ± 0.026	0.939 ± 0.025	0.9162 ± 0.0083	0.9 ± 0.043
HADHA (UniProt P40939)	1 ± 0.026	1.04 ± 0.053	0.967 ± 0.039	0.975 ± 0.073	0.977 ± 0.077	0.977 ± 0.1	0.955 ± 0.057	0.928 ± 0.049
SLC1A4 (UniProt P43007)	0.997 ± 0.05	0.971 ± 0.052	0.981 ± 0.05	0.957 ± 0.071	0.94 ± 0.08	0.918 ± 0.052	0.956 ± 0.038	0.949 ± 0.084
SOAT1 (UniProt P35610)	0.915 ± 0.071	0.993 ± 0.042	0.909 ± 0.071	0.947 ± 0.014	0.916 ± 0.049	0.917 ± 0.034	0.863 ± 0.088	0.905 ± 0.055
ARL2 (UniProt P36404)	1.04 ± 0.03	1.02 ± 0.037	0.959 ± 0.024	1.01 ± 0.047	0.983 ± 0.014	0.92 ± 0.015	0.952 ± 0.052	0.9 ± 0.05
UniProt P49757 and related entries	1.08 ± 0.034	1.1 ± 0.02	1.11 ± 0.027	1.1 ± 0.08	1.08 ± 0.031	1.09 ± 0.036	1.1 ± 0.03	1.1 ± 0.093
CENPF (UniProt P49454)	0.987 ± 0.026	0.995 ± 0.045	1.03 ± 0.048	1.04 ± 0.061	1.06 ± 0.045	1.06 ± 0.055	1.1 ± 0.058	1.11 ± 0.086
TRAPPC10 (UniProt P48553)	1.381 ± 0.012	1.16 ± 0.013	1.32 ± 0.0021	1.24 ± 0.08	1.23 ± 0.072	1.206 ± 0.0061	1.221 ± 0.0049	1.24 ± 0.098
PSMB4 (UniProt P28070)	0.926 ± 0.12	1.01 ± 0.11	0.939 ± 0.11	1.04 ± 0.14	1.05 ± 0.21	1.03 ± 0.22	0.945 ± 0.14	0.976 ± 0.14
BLVRB (UniProt P30043)	1.02 ± 0.022	0.991 ± 0.023	0.9141 ± 0.0059	0.941 ± 0.035	0.956 ± 0.046	0.895 ± 0.067	0.895 ± 0.1	0.901 ± 0.1
ATP6V1E1 (UniProt P36543)	0.91 ± 0.033	0.885 ± 0.022	1.02 ± 0.057	1.01 ± 0.044	1.01 ± 0.056	1.01 ± 0.056	0.933 ± 0.059	0.982 ± 0.083

Two successive records out of the list so far, quoted:
Target	NP40-soluble protein abundance (concentration: 0.1mM)	NP40-soluble protein abundance (concentration: 0.5mM)	NP40-soluble protein abundance (concentration: 1mM)	NP40-soluble protein abundance (concentration: 2mM)	NP40-soluble protein abundance (concentration: 4mM)	NP40-soluble protein abundance (concentration: 6mM)	NP40-soluble protein abundance (concentration: 8mM)	NP40-soluble protein abundance (concentration: 10mM)
PSMB4 (UniProt P28070)	0.926 ± 0.12	1.01 ± 0.11	0.939 ± 0.11	1.04 ± 0.14	1.05 ± 0.21	1.03 ± 0.22	0.945 ± 0.14	0.976 ± 0.14
BLVRB (UniProt P30043)	1.02 ± 0.022	0.991 ± 0.023	0.9141 ± 0.0059	0.941 ± 0.035	0.956 ± 0.046	0.895 ± 0.067	0.895 ± 0.1	0.901 ± 0.1
